Measured values as given in article PMC10890935.
No constants are given. Whether binding was seen depends on the method and setting. In cells and extracts the contact can be indirect. These calls come from enrichment with a bait or labelling near it, and not all partners need be listed. A no says only that the protein was not detected with the bait. Tags and fused reporters may be left off the sequences shown.

By UniProt entry, the sequences of proteins in these tests, tags left out. Where a name states a change or a piece, a line headed by the entry shows the natural chain unless it says otherwise.
UniProt A8LHT0: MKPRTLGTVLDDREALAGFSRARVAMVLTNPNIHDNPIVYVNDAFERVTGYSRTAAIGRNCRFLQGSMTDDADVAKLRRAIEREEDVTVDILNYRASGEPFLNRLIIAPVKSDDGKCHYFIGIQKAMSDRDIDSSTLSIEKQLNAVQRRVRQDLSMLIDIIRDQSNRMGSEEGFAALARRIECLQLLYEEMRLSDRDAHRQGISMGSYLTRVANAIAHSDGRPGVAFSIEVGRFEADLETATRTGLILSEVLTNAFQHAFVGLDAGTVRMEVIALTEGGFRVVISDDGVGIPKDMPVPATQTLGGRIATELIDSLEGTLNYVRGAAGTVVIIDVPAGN

B1: PpsR repressor (protein, UniProt A8LQ24 1-476)
chain: MNTRERDFWDDRSAPRIAPEHFNEIVATAADLAIVLDLKGTVQSLVVNPLNPTIGRLDHWQKRDIREFLAEDSLAKLEKQLSAYQQGEVPPTDAIEVNHFDNANWEFPIRYTLHRTGDENLILMLGRDLRPVAELQHRLVKAQLALEKDYESHRDYETRYRVVMESTRDPLVLVDASSGRITDMNSAAAQVLGAEADALVGSLFGHEFNGLKRGELLDQLMGAATSDTNSSVTAHTKRTAKELKIQARLFRASGDKTLLCRLEGAGAQEVIAEELSEVLTLLFREGADAVVFTDPTGMIRNVNEAFLNLTDVGQLGDIKGKSLSDFLARGSVDLKVMMDNASRHGSMPVYSTRLESAYGSQLSVEISATHLEARQNGGFAFVFRDASRLEVVRDAAPVNGAVSGEAMQNVMELVGSAPLKDIVSATTDVVEKMCIETAVGLTRNNRVAAAEMLGLSRQSLYVKLRKYGLLNKGGDE
B2: Enolase (Eno) (enzyme, UniProt A8LQL4 1-424)
chain: MSLIVDVYAREILDSRGNPTVEVDVTLEDGTLGRAAVPSGASTGAYEAVELRDKDTARYFGKGVKTAVAFVNGEIAEALMGIDATDQVGIDSAMIELDGTPNKSRLGANAILGVSLAVAKAAAEATGQPLYRYVGGTSARVLPVPMMNIINGGEHADNPIDIQEFMIMPVSADSIAEAVRMGAEVFHTLKKELSAAGLSTGIGDEGGFAPNLSSTRDALDFVLKAIEKAGYTPGEDIYLALDCAATEYFEDGRYEMKGEGKTLTPEANVDYLEALVNDYPILSIEDGCSEDDWEGWALLTERLGDRVQLVGDDLFVTNPARLAEGIQKGCANSLLVKVNQIGTLTETLSAVDLAHRNRMTCVMSHRSGETEDATIADLAVATNCGQIKTGSLARSDRLAKYNQLIRIEDELGETAIYAGRSILR
B3: Dshi_1084, conserved hypothetical protein (protein, UniProt A8LSL2 1-136)
chain: MSTVATWPSQAEMWLDRKGKPAWIVAMVLGFIFFWPIGLALLAYMIWGKKMFKSQSACKSYSLTHGFKSSGNTAFDAYKADTLRRLQDEQEAFEAFLDRLRAAKDKSEFDQFMEDRARMAQDTPKPDTDGPAPAGA
B4: RpoA, RNA polymerase subunit alpha (protein, UniProt A8LM81 1-343)
chain: MEATPMIHKNWQELIKPTQLEVKPGNEPARQATVVAEPLERGFGLTLGNALRRVLMSSLQGAAITSVQIDNVLHEFSSVAGVREDVTDIVLNLKQVAIRMEVEGPKRVSISAKGPRVVTAGDISESAGIEVLNRDHVICHLDEGADLFMELIVNTGKGYVSADKNRPEDAPIGLIPIDAIFSPVKKVSYDVQPTREGQVLDYDKLTLKLETDGSVTPDDAVAYAARILQDQLSVFVNFDEPEAARSQSEEDDLEFNPLLLKKVDELELSVRSANCLKNDNIVYIGDLIQKTEAEMLRTPNFGRKSLNEIKEVLSGMGLHLGMDILDWPPENIEDLAKKFEDQF
B5: RpoZ, RNA polymerase subunit omega (protein, UniProt A8LLD2 1-118)
chain: MARVTVEDCVDKVPNRFELVMLAAHRAREISAGSELTIDRDNDKNPVVSLREIAEETQSADALRERLIESNQTQIEVDEPEEDSMAMLMGGGQPDKPAEDDMSEEKLLRALMEAQGQP
B6: N-acetylglucosamine-1-phosphate uridyltransferase (GlmU) (enzyme, UniProt A8LIS2 1-450)
chain: MGVALIVLAAGQGSRMNSELPKVLHPLAGAPLLAHGLRAGAALDPARIVVVTGHGAAAVEAATAQLAPEAICVRQTEQLGTGHAVAQTAQALAGFGGDALVLYGDTPFISPETLLAMQAARAAGADMVVLGFEAADPGRYGRLVTDGDALLRIVEAKDATPDELALDLCNSGVMMADAQVLLRLVAGLSNDNASREYYLTDTIAAGRAEGLRARVVVCPEAETLGINTRTELAAAEQAFQARARARALEDGVTLADPATTHFAVDTVIGRDATIGPQVVFGPGVTVESGAEIRAFSHLEGCHVSRGARVGPFARLRPGAELAENTHVGNFVEIKNATLAQGAKVNHLSYIGDAAIGEASNVGAGTITCNYDGVFKHRTEIGARSFIGSNTCLVAPVRVGDEAMTATGTVVTQDIPDGAMAVGRTRQENKPGFARKFMTMLRARKSAKGAQ
B7: Elongation factor Ts (Tsf) (protein, UniProt A8LK92 1-291)
chain: MAITAALVKELRDKTGAGMMDAKKALTETDGDMEAAVDWLRTKGLAKAAKKSGRTAAEGLVGVAVADGAAVAVEVNSETDFVAKNAEFQAMVASFAEAALSASDLDALKGTEVGGKTVETILTDKIATIGENMTLRRMEKLSGETVVSYVHNAAADGMGKIGVLVALTGADNGIGKQIAMHIAAANPASLSEADLDPAVVEKERQVQIDIARESGKPEQVIEKMIVGRMKKFLSEVTLLGQAFVVNPDLTVGDAAKEAGVEITGFVRMEVGEGIEKVEEDFAAEVAKTMNG
B8: Dshi_2485, pyruvate carboxylase (enzyme, UniProt A8LSM0 1-1145)
chain: MTDFQKILIANRGEIAIRVMRAANELGKKTVAVYAEEDKLCLHRFKADEAYKIGEGLGPVAAYLSIDEIIRVAKLSGADAIHPGYGLLSENPDFVDACVANGIAFIGPRAETMRALGDKASARRVAIEAGVPVIPATEVLGDDMDKVRAEAEAIGFPLMLKASWGGGGRGMRPIFDPDEVADKVREGRREAEAAFGNGEGYLEKMITRARHVEVQILGDSMGNIYHLWERDCSVQRRNQKVVERAPAPYLSSSQREQLCELGRKICAHVNYECAGTVEFLMDMDTGEFFFIEVNPRVQVEHTVTEEVTGIDIVRAQILIAEGKSLVEATGMASQYDVQLNGHAIQCRITTEDPQNNFIPDYGRITAYRGATGMGIRLDGGTAYSGAVITRYYDSLLEKVTAWAPTPEAAIARMDRALREFRIRGVSTNIAFVENLLKHPTFLNNQYTTKFIDETEELFQFPKRRDRATRILRYIADISVNGHPETEGRPKPPATPRALRAPAPKAAPAPGTRTLLEKKGPQAVADWMAAQKQLLITDTTMRDGHQSLLATRMRSIDMIRVAPSYAANLPQLFSVECWGGATFDVAYRFLQECPWQRLRDIRAAMPNVMTQMLLRGSNGVGYTNYPDNVVRAFTLQAAESGVDVFRVFDSLNWVENMRVAMDAVLESGKVCEGAICYTGDILDPNRAKYDLNYYVTMGKELREAGAHILGLKDMAGLLKPASARILIKALKEEVGLPIHFHTHDTAGIASATILAAAESGVDAVDCAMDALSGNTSQATLGTVVEALQHTDRDTGLDIKAVREISDYWEAVRGEYAAFESGMQAPSSEVYLHEMPGGQFTNLKAQARSLGLEERWHEVAQTYADVNQMFGDIVKVTPSSKVVGDMALMMVSQGLSRADVEDPDRDVSFPDSVIDMMRGNLGQPAGGFPEAIVAKILKGESPNTERPGKHIPPVDLEKTRADLAAQLEVDIDDEDLNGYLMYPKVFTDYMTRHAEYGPVRTLPTRTFFYGMQPGDEIEVEIDPGKTLVVRMQTASETNEDGEVKVFFELNGQPRQVRVPNRKAAASVAKRPKAELGNPNHVGAPMPGVVASVAVQAGASVKEGDLLLTIEAMKMETGIHAERDAVVKAVHVTPAAQIDAKDLLVELE
B9: AccB, component of the acetyl coenzyme A carboxylase complex (protein, UniProt A8LJB6 1-175)
chain: MRLSDHPIEDGMTNKSHDDDVAFIKALAELLRANDLSELQVKREYGEDDSLNVRVSRQMTAAPVAAAMPVAAPAPMAAPVAPGAAAPAPLEGGDPAQDPNALTSPMVGTAYLQPEPGAASFVSTGDTVKEGQTVLIIEAMKTMNQIAAPRAGKVTRIFVEDGSPVEYGAPLMIIE

target: Dshi_1135-Strep fusion protein (Dinoroseobacter shibae) (UniProt A8LHT0); assay: affinity purification with mass spectrometry; D. shibae DS266 grown in the dark, under blue light (467 nm) or white light; in vivo cross-linking with 0.125% formaldehyde; Dshi_1135-Strep bait on a Strep-Tactin column; elution fractions by nanoLC-MS/MS, compared with the proteome of the cell extract

Question: Which binding does the source give for B1 here?
Answer: binds

Question: For B2, which binding is on record?
Answer: binds

Question: How did the binding turn out when B3 was run?
Answer: binds

Question: For B4, which binding is on record?
Answer: binds

Question: For B5, which binding is on record?
Answer: binds

Question: With B6 as the binder, how does the binding read?
Answer: binds

Question: B7 was tested. Which binding did it give?
Answer: binds

Question: B8 was tested. Which binding did it give?
Answer: no binding

Question: Which binding does the source give for B9 here?
Answer: no binding
